Key:
[1] = Isothermal titration calorimetry (ITC) of Compound 2 into the sodium salt of 1; type: binding; details: 15% (v/v) acetonitrile-ddH2O, 25° C.
[2] = Spectrophotometric (UV/vis) titration of boronic acids 2 against the sodium salt of sulfenic acid 1, incl. reversibility with NaOH; details: 0.8 mM sodium salt of 1, 4.5 mM boronic acid, then 4.5 mM NaOH; 15% (v/v) acetonitrile-water, 22° C.

| SMILES | Averaged ΔH [1] | Averaged ΔS (cal/mol/K) [1] | Reversibility of complex formation with sulfenic acid 1 [2] |
| --- | --- | --- | --- |
| OB1OCc2ccccc21 [Compound 2A, 2-(hydroxymethyl)benzeneboronic acid hemiester] | -6.6 ± 0.3 kcal/mol | −4.4 ± 0.3 cal/mol/K |  |
| OB(O)c1cccc(Br)c1 [Compound 2d, 3-Bromobenzene-boronic acid] | -4.7 ± 0.4 kcal/mol | −3.8 ± 1.9 cal/mol/K | reversible process that can be reversed by hydroxide |
| OB(O)c1ccccc1 [Compound 2g, phenylboronic acid] | -9.3 ± 0.8 kcal/mol | −12 ± 6 cal/mol/K |  |
